Results: US7452858B2 (Amylin Pharmaceuticals, Inc., priority 1999, dated 2008)

Experiment: Fmoc solid-phase peptide synthesis; 4-(2'-4'-dimethoxyphenyl)-Fmoc aminomethyl phenoxy acetamide norleucine MBHA resin (Novabiochem, 0.55 mmole/g); HBTU (Fast Moc)
Conditions: whole synthesis, analytical RP-HPLC, C-18 column

## Ala Gly Glu Gly Thr Phe Thr Ser Asp Leu Ser Lys Gln Leu Glu Glu Glu Ala Val Arg Leu Phe Ile Glu Phe Leu Lys Asn-NH2
  crude purity (method not given): about 75%
